Laboratory results: the supplement of paper PMC10849652
This is one part of the list.

Sequences of proteins named here, by UniProt entry; tags and fusion partners are left off. A change or cut given only in a name is not applied to a line headed by its entry.
UniProt Q7Z2E3: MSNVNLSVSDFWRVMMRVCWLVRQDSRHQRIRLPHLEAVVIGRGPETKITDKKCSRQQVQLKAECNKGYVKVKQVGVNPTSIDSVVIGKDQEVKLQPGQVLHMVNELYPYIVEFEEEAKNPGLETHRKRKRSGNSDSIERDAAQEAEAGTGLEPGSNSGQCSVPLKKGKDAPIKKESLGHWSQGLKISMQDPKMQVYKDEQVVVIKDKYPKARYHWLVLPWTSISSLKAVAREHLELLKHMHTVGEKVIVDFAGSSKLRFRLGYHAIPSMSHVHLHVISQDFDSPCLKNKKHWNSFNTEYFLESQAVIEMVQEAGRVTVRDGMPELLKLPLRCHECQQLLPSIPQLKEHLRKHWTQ
UniProt Q9HC16: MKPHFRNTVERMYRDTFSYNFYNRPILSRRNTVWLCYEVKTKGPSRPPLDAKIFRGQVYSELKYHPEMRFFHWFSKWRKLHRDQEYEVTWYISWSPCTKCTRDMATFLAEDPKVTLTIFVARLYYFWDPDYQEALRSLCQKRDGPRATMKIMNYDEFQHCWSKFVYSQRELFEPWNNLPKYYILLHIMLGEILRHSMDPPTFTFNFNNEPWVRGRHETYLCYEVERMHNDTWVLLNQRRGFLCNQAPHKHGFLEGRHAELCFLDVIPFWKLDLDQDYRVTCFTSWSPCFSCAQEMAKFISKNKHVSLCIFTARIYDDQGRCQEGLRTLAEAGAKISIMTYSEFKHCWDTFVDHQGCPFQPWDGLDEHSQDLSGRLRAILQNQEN
UniProt Q9NRY4: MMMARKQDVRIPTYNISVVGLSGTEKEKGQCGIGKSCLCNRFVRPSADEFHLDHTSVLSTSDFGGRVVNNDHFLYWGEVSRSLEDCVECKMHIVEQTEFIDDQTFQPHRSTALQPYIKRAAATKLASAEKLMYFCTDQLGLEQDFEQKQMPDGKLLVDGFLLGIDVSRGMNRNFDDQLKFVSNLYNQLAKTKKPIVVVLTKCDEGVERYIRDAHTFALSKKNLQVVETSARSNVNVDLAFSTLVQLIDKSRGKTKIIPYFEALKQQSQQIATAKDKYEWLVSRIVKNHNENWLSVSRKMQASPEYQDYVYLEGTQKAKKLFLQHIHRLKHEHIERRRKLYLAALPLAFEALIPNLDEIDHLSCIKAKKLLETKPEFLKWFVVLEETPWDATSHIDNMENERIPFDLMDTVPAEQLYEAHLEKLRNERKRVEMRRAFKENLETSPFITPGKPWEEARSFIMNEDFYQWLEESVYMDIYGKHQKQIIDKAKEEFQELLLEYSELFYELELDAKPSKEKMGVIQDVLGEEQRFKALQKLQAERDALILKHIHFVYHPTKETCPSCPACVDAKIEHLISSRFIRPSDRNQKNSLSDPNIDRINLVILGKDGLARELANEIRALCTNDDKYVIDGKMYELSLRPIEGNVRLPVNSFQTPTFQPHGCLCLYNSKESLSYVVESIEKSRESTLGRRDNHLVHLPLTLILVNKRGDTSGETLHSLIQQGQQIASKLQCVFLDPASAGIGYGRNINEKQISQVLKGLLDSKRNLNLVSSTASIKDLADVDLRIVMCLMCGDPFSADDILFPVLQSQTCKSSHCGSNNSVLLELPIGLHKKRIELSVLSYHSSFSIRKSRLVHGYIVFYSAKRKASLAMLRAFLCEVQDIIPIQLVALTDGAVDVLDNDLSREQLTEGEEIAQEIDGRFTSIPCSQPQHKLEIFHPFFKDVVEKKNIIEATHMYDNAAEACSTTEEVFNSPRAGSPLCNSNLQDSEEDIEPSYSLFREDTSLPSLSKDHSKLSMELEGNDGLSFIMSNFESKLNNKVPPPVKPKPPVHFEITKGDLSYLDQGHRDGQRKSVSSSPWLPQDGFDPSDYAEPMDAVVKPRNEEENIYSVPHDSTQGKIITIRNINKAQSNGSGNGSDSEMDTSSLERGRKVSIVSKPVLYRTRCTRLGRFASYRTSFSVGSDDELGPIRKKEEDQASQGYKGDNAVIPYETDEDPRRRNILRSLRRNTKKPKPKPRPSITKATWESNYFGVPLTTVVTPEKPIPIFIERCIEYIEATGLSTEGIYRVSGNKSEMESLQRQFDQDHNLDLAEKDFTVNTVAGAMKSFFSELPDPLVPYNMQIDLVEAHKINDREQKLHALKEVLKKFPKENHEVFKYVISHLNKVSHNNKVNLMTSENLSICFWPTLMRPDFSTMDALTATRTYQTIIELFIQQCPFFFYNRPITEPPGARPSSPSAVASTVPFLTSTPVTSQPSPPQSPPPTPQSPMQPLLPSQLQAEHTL
UniProt P05090: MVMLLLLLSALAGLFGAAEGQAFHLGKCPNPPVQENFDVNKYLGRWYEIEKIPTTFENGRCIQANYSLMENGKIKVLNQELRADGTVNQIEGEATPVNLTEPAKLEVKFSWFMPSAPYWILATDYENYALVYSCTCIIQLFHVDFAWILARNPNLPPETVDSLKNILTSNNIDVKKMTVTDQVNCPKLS
UniProt A6QL64: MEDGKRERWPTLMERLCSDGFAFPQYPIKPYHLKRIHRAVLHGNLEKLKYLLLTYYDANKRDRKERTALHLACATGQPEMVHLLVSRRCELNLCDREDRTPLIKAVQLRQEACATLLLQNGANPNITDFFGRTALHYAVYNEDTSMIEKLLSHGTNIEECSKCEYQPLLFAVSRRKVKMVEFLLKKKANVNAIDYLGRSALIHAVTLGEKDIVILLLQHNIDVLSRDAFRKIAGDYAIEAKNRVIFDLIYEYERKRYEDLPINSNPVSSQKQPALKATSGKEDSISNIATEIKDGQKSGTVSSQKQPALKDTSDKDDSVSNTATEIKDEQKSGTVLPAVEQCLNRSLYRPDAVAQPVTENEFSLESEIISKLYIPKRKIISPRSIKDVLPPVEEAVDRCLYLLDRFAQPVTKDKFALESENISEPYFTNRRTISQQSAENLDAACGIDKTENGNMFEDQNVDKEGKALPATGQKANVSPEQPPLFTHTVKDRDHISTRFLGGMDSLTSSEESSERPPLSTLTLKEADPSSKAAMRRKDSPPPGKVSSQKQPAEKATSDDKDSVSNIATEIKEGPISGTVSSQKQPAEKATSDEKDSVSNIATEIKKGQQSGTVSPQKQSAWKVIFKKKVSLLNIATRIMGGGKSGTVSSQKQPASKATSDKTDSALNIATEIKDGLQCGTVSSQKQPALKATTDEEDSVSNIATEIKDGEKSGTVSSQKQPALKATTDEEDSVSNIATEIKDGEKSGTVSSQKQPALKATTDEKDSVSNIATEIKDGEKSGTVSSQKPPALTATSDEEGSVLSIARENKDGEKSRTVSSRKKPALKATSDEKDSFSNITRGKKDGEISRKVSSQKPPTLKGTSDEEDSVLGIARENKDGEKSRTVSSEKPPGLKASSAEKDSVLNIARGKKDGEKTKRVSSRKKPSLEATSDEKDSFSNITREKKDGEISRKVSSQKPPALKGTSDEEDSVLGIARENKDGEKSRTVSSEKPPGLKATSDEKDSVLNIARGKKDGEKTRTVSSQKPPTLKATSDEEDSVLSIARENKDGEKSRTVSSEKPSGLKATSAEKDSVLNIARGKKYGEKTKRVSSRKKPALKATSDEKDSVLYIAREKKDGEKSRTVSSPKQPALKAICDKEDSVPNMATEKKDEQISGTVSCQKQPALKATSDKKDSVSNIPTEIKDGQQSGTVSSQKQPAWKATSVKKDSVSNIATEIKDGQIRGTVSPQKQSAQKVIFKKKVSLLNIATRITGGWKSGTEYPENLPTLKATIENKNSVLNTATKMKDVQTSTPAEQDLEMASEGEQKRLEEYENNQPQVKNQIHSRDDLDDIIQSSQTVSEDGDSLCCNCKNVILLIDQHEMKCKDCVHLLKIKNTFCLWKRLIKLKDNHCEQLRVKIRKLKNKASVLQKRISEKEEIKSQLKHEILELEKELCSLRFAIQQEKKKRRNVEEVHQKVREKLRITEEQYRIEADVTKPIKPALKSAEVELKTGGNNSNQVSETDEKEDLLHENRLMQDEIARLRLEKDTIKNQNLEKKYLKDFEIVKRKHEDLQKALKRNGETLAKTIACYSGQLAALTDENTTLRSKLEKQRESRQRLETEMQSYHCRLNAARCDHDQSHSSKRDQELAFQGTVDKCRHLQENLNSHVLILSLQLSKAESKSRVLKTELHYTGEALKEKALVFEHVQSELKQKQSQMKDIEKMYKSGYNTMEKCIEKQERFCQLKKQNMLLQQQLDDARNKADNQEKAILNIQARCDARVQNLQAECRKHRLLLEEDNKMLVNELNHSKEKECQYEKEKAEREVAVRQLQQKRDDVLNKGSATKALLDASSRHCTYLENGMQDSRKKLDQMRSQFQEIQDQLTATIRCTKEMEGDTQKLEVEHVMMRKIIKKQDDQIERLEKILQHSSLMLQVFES
UniProt P05067, whole entry, looked up: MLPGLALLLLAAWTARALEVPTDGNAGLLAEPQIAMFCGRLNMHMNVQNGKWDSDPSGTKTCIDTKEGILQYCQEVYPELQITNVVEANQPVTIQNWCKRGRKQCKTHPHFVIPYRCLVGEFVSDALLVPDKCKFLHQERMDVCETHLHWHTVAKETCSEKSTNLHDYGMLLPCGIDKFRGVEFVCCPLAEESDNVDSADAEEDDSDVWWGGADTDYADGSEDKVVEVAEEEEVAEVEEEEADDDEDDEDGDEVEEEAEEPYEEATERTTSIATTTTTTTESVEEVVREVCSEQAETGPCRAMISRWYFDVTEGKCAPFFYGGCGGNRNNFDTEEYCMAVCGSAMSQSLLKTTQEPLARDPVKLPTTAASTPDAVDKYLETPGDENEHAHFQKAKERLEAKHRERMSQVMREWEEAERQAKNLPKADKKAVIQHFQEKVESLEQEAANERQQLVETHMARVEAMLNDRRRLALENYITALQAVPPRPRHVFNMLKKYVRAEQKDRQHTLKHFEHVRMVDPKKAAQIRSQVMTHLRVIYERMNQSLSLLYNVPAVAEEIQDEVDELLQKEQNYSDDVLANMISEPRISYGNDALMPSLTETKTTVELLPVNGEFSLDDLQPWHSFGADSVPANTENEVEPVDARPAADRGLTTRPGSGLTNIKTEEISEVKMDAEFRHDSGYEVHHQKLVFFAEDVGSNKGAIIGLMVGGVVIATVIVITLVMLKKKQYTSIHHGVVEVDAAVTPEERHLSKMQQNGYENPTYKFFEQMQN
UniProt Q86XL3: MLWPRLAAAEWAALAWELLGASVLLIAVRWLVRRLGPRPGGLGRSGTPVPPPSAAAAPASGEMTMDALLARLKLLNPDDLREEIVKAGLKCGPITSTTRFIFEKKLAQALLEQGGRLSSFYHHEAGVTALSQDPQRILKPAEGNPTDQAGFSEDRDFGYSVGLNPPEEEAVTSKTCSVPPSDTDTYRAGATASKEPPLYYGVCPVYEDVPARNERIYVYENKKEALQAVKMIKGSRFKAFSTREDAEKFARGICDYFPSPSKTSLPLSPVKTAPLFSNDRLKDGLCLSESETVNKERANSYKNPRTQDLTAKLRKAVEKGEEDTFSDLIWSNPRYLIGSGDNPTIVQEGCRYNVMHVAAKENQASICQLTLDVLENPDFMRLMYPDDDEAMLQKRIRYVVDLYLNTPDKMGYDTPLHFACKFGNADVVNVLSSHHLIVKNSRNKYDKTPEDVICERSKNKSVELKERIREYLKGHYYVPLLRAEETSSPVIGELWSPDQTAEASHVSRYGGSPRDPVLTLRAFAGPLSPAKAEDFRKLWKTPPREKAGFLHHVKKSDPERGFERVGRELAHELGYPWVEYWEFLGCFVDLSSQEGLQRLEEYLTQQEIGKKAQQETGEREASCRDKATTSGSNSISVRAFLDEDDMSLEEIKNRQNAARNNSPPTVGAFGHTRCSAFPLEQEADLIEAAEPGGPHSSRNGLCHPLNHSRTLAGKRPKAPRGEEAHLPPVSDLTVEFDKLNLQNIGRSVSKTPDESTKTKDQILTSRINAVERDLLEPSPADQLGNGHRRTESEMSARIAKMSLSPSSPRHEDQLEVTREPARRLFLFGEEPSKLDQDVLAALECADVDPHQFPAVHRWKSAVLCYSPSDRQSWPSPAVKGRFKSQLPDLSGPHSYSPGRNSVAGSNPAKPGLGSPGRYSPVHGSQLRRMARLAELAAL

Key:
Test in all cases: log2 fold change, soluble protein after heating vs DMSO (PISA); higher = thermal stabilisation; K562 cells, 10 uM, 30 min; active = over 0.2 and 3.5 SD of the protein, either way, in both replicates (recomputed)
[1] = compound: CC1=C(SC2=C1C(=N[C@H](C3=NN=C(N32)C)CC(=O)N)C4=CC=C(C=C4)Cl)C
Summary of the method: (§1)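 Soluble protein was defined as the supernatant after 21,000xg for 90 min. It came from K562 cells at 2×10^6 cells/mL given 10 μM compound for 30 min, heated in aliquots for 3 min across 48°C-58°C, pooled, and extracted in PBS with 0.5% NP-40 at 4°C, and was quantified by TMTpro 16plex LC-MS/MS with equalised channel sums. Thermal stability against control samples, from duplicates, is reported as log2 fold change.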

[2] = compound: c1ccc([C@@H]2C[C@H]2NC2CCNCC2)cc1
Summary of the method: as §1

[3] = compound: CC1=C2C(=CC=C1)N=C(N(C2=O)C3=CC=CC=C3C)CN4C=NC5=C(N=CN=C54)N
Summary of the method: as §1

[4] = compound: Cc1sc2c(c1C)C(c1ccc(Cl)cc1)=N[C@@H](CC(=O)OC(C)(C)C)c1nnc(C)n1-2
Summary of the method: as §1

[5] = compound: C1=CC=C(C=C1)[C@H](COC2=CC3=C(C=C2)NC(=O)N3)NC(=O)C4=CC=CN(C4=O)CC5=CC(=C(C=C5)F)F
Summary of the method: as §1

APTX (UniProt Q7Z2E3)
log2 fold change [1]: inactive: -0.06 | log2 fold change [2]: inactive: 0.03

ANAPC15 isoform 2 (UniProt P60006)
log2 fold change [1]: inactive: -0.063 | log2 fold change [3]: inactive: 0.04 | log2 fold change [4]: inactive: -0.067 | log2 fold change [2]: inactive: -0.037

ARHGEF12 (UniProt Q9NZN5)
log2 fold change [5]: inactive: -0.318 | log2 fold change [3]: inactive: -0.128 | log2 fold change [4]: inactive: 0.015

APOBEC3G (UniProt Q9HC16)
log2 fold change [5]: inactive: 0.089 | log2 fold change [3]: inactive: 0.436 | log2 fold change [4]: inactive: 0.147

AP2S1 (UniProt M0QZ21)
log2 fold change [4]: inactive: -0.014

ARHGAP35 (UniProt Q9NRY4)
log2 fold change [1]: inactive: -0.022 | log2 fold change [3]: inactive: 0.205 | log2 fold change [4]: inactive: 0.085 | log2 fold change [2]: inactive: 0.022

APOD (UniProt P05090)
log2 fold change [1]: inactive: 0.39 | log2 fold change [3]: inactive: -0.139 | log2 fold change [4]: inactive: -0.121 | log2 fold change [2]: inactive: -0.034

AQR (UniProt O60306)
log2 fold change [1]: inactive: -0.051 | log2 fold change [3]: inactive: 0.048 | log2 fold change [4]: inactive: 0.058 | log2 fold change [2]: inactive: 0.021

ANKRD36 (UniProt A6QL64)
log2 fold change [3]: inactive: 0.054 | log2 fold change [4]: inactive: 0.04

ARHGAP6 (UniProt O43182)
log2 fold change [4]: inactive: -0.056

APP (UniProt P05067)
log2 fold change [4]: inactive: 0.15

ANKLE2 (UniProt Q86XL3)
log2 fold change [3]: inactive: 0.02

ANGEL1 (UniProt Q9UNK9)
log2 fold change [5]: inactive: -0.256 | log2 fold change [3]: inactive: -0.172 | log2 fold change [4]: inactive: -0.042

ARHGAP21 (UniProt Q5T5U3)
log2 fold change [5]: inactive: 0.142 | log2 fold change [1]: inactive: 0.18 | log2 fold change [2]: inactive: -0.201
